Source: patent publication US20260218135A1 (REGENTS OF THE UNIVERSITY OF COLORADO A BODY CORPORATE, published 2026)
These are yes or no findings as the source states them, for the method shown. Binding seen in cells or lysates may run through a third protein. Some entries that bind do so weakly or less than the wild type. For some of these results: Where a sequence is shown, tags or fusion partners need not be part of it.

The chains behind the UniProt entries cited, without tags or fusion partners.
UniProt A6ZKI3: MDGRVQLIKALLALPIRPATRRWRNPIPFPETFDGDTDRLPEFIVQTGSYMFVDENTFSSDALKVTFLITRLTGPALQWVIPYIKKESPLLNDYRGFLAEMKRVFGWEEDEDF

Tests used:
[1] = target: T1, HA-PEG10 gag-pol (2x HA-tagged human PEG10, AA1-708) (Homo sapiens) (UniProt Q86TG7); assay: crosslinking co-immunoprecipitation, IP with FLAG antibody, HEK293 lysate, western blot
T1 sequence (looked up): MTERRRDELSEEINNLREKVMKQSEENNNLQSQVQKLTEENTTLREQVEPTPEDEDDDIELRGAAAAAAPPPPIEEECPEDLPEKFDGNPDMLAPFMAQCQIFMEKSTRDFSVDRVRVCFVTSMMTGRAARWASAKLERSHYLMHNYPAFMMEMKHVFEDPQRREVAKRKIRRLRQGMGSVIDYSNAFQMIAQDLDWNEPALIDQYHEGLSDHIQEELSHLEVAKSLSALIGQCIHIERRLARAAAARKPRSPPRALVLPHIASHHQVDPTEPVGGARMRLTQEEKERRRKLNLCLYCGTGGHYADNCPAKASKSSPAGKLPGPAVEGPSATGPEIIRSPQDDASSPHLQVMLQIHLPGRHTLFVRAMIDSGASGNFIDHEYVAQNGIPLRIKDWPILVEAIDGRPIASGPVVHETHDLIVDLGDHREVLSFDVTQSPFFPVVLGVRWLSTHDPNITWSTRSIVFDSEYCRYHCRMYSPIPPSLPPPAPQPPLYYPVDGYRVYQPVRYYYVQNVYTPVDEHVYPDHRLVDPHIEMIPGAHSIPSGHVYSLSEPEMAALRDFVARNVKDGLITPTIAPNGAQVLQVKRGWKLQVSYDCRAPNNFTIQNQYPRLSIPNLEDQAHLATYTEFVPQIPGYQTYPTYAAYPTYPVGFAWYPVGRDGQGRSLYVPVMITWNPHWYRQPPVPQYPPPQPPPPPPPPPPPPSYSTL

[2] = target: HA-PEG10 capsid (37 kDa self-cleavage product of HA-PEG10) (Homo sapiens) (UniProt Q86TG7); assay: as above
[3] = target: T1, HA-PEG10 gag-pol (2x HA-tagged human PEG10, AA1-708) (Homo sapiens); assay: crosslinking co-immunoprecipitation, IP with HA antibody, HEK293 lysate, western blot
[4] = target: T2, murine HA-tagged Peg10 (murine) (UniProt Q7TN75); assay: co-immunoprecipitation of murine or human FLAG-RTL8 with murine HA-tagged Peg10 (FIG. 4e), n=1
T2 sequence (looked up): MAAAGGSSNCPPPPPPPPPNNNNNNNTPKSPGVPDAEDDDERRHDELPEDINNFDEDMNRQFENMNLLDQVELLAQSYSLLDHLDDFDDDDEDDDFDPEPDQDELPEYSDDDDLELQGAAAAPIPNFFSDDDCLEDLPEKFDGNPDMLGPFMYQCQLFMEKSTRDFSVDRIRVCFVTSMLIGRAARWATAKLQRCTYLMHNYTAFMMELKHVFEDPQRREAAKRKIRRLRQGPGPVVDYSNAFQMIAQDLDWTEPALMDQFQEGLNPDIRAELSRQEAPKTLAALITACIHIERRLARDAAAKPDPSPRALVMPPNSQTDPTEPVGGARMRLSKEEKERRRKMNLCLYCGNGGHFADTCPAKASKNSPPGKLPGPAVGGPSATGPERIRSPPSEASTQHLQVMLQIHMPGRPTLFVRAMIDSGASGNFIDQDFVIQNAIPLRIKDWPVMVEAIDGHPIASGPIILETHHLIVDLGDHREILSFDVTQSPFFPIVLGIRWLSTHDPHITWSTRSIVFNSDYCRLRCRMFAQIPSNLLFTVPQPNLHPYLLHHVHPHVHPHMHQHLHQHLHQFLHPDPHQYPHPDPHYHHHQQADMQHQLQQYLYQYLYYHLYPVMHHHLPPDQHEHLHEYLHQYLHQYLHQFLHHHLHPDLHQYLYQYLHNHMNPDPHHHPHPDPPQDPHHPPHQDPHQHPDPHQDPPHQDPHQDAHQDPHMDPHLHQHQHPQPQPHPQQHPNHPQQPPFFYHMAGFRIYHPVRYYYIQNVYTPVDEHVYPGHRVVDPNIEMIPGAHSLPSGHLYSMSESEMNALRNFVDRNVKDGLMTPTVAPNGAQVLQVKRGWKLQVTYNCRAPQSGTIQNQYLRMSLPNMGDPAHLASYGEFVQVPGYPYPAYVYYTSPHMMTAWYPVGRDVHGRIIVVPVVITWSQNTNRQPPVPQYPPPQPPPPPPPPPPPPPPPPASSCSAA

[5] = target: T3, HA-capsid^NTD (2x HA-tagged human PEG10, AA1-160) (Homo sapiens) (UniProt Q86TG7); assay: crosslinking co-immunoprecipitation, IP with FLAG antibody, western blot
T3 sequence (looked up): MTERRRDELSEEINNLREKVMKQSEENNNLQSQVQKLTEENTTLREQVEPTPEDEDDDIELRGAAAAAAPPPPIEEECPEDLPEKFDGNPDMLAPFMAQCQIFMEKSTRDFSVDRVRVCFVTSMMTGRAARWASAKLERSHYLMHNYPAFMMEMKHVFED

[6] = target: T1, HA-PEG10 gag-pol (2x HA-tagged human PEG10, AA1-708) (Homo sapiens); assay: as above
[7] = target: T3, HA-capsid^NTD (2x HA-tagged human PEG10, AA1-160) (Homo sapiens); assay: crosslinking co-immunoprecipitation, IP with FLAG antibody, western blot (FIG. 3d)

Measured: binding

FLAG-HsRTL8c-3'UTR (3x FLAG-tagged human RTL8c, AA1-113) (from UniProt A6ZKI3 1-113)
binds: all assays above
